Reference: patent publication EP0335545B2, “Pharmaceutical formulations for parenteral use” (UNIVERSITY OF FLORIDA, priority 1988, dated 1989)
≈ marks a conversion by molar mass, not a printed value. Read-outs that look alike come from different tables or passages of the source.

How the values were obtained:
physchem = details: Solubility (mg/mL)
[1] = 20% hydroxypropyl-β-cyclodextrin phosphate buffer
[2] = 20% hydroxypropyl-γ-cyclodextrin phosphate buffer

For `CC(=O)[C@H]1CC[C@H]2[C@@H]3CC[C@H]4C[C@H](O)CC[C@]4(C)[C@H]3C(=O)C[C@]12C` [Alfaxalone], the “solubility” value [1] was 24.42 mg/mL (≈ 73.4 mM), the “solubility” value [2] was 15.11 mg/mL (≈ 45.4 mM) and the solubility (physchem; [1]) was 22.8 mg/mL (≈ 68.7 mM). The solubility (physchem; [2]) was 18.4 mg/mL (≈ 55.4 mM) and the solubility (physchem; 20% maltosyl-β-cyclodextrin phosphate buffer) was 20 mg/mL (≈ 60.2 mM).
